# Data from PubChem BioAssay AID587 (National Center for Advancing Translational Sciences (NCATS), 2007).
# Among all 59,000 compounds or so, about 35 (0.06%) were called active. Inconclusive means that the source gave no clear call. Such entries were picked first, then a sample of the others. No stated cut-off is given here; in the data, active means max dye-equivalent concentration above about 10 nM; inconclusive means between about 1.1 nM and that limit; inactive means weaker than that.
# Test: qHTS Assay for Spectroscopic Profiling in Texas Red Spectral Region
# Conditions: Compound fluorescence, Texas Red channel, 547/618 nm; active compounds read high
# Outline: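 qHTS profiling of intrinsic compound fluorescence; 100 mM Tris pH 8.0; 15 min RT; ex 547 / em 618 nm; response expressed as Texas Red dye-equivalent concentration from six-point plate standard.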
row,SMILES,max dye-equivalent concentration
1,Cc1cccc(N2CCN(C(=O)CCNC(=O)Cn3ccc4ccccc4c3=O)CC2)c1C,inconclusive: 1.2 nM
2,O=C(CN1C(=O)NC2(CCCCCC2)C1=O)N1CCC(Cc2ccccc2)CC1,inconclusive: 1.7 nM
3,O=C(c1cn(-c2ccccc2)nc1-c1ccccc1)N1CCOCC1,inconclusive: 1.6 nM
4,Cc1cc2c(c(=O)n1Cc1cccnc1)C(c1ccc(F)cc1)C(C#N)=C(N)O2 (stereo not given),inconclusive: 1.5 nM
5,Cc1cc(C)n(-c2ccc(C(=O)OCn3nnc4ccccc4c3=O)cc2)n1,inconclusive: 1.5 nM
6,Clc1ccc(CSc2nnc(-c3ccncc3)o2)cc1,inconclusive: 1.2 nM
7,CCOC(=O)CNC(=O)CSc1nnc(-c2cccc(OC)c2)n1CC,inconclusive: 2.2 nM
8,CCN(CC)CCCn1c(=S)[nH]c2ccc(Cl)cc2c1=O,inconclusive: 1.1 nM
9,CCOC(=O)C1CCN(C(c2cc3ccc(C)c(C)c3[nH]c2=O)c2nnnn2C2CCCCC2)CC1 (stereo not given),inconclusive: 2.3 nM
10,COc1ccccc1C(=O)N1CCCC(c2nc(-c3cc(OC)c(OC)c(OC)c3)no2)C1 (stereo not given),inconclusive: 1.8 nM
11,CC1=C(\C=C/C(C)=C/C=C\C(C)=C\CO)C(C)(C)CCC1,inactive
12,O=C(CSc1nc2ccccc2c(=O)n1Cc1ccc(C(=O)NC2CC2)cc1)NCc1ccco1,inconclusive: 1.2 nM
13,COc1ccc(NC(=O)CSc2nnc(CNc3ccc(F)cc3)o2)c(OC)c1,inconclusive: 1.6 nM
14,CSC1CCCCC1(O)CSc1nc2c(cc1C#N)CCCC2 (stereo not given),inconclusive: 1.3 nM
15,O=C(NCc1cccnc1)c1c(F)c(F)c(F)c(F)c1F,inconclusive: 1.6 nM
16,CCN1C(=O)C(NC(C)=O)c2cc(Br)ccc21 (stereo not given),inconclusive: 1.4 nM
17,CCOc1ccc(-c2nnn(CC(=O)c3ccc4c(c3)OCCO4)n2)cc1OCC,inconclusive: 1.3 nM
18,CC(=O)Nc1cc(NC(C)=O)cc(C(=O)OCC(=O)N2CC(C)OC(C)C2)c1 (stereo not given),inconclusive: 1.7 nM
19,CCCCOP(=O)(c1ccc(N(C)C)cc1)C(O)c1ccccc1F (stereo not given),inconclusive: 2.4 nM
20,COc1ccc(NC(=O)c2cc(OC)c(OC)c(OC)c2)cn1,inconclusive: 1.8 nM
21,Cc1sc(CO)c(Sc2ccccc2)c1C(=O)O,inconclusive: 1.2 nM
22,N[C@@H](C(=O)O)[C@H](O)C(=O)O,inconclusive: 1.2 nM
23,COc1ccc2c(c1)c(=O)oc1cc(OCC(=O)NC3CC3)ccc12,inconclusive: 2.1 nM

row,SMILES,max dye-equivalent concentration
1,O=C(O)[C@@H]1[C@@H]2O[C@H]([C@@H](Br)[C@H]2Br)[C@H]1C(=O)O,inconclusive: 1.4 nM
2,Cc1ccccc1OCc1nnc2c3cnn(C)c3ncn12,inconclusive: 1.1 nM
3,CCOC(=O)N1CCN(C(=O)Cn2nc(-c3ccc(Cl)cc3)ccc2=O)CC1,inconclusive: 1.2 nM
4,O=C1CN(C(=O)c2ccccc2)c2ccccc2N1,inconclusive: 1.4 nM
5,Nc1ncnc2c1ncn2CCN1CCCCC1,inconclusive: 1.7 nM
6,COC(=O)c1nc(-c2ccccc2)n[nH]1,inconclusive: 1.4 nM
7,COc1cccc(NC(=O)CSc2nnnn2C(C)C)c1,inconclusive: 1.8 nM
8,COCC(=O)Nc1nc2n(n1)C(c1ccc(Cl)cc1)CC(c1ccc(OC)cc1)N2 (stereo not given),inconclusive: 1.7 nM
9,COc1ccccc1N(CC(=O)NC1CCCC1)C(=O)CCC(=O)Nc1cc(C)on1,inconclusive: 1.9 nM
10,CCCCOc1ccc(OCCNS(=O)(=O)N(C)C)cc1,inconclusive: 1.1 nM
11,C=CCOn1c(=O)c(=O)n(OCc2ccccc2)c2ccccc21,inconclusive: 2 nM
12,OCCN(Cc1ccccc1)Cc1ccccc1F,inconclusive: 1.1 nM
13,O=C(CCN1C(=O)c2ccccc2C1=O)Nc1ccc(-c2nc3ccccc3o2)cc1,inconclusive: 1.4 nM
14,COc1ccc2[nH]c(=O)c(CN(C)C(=O)c3ccncc3)cc2c1,inconclusive: 1.2 nM
15,CC1=CC(=O)OC1Cc1ccncc1 (stereo not given),inconclusive: 1.7 nM
16,Cc1ccc(CNC(=O)CCCNC(=O)c2ccc(Cl)cc2)n1C,inconclusive: 2 nM
17,Cc1ccccc1-c1cncnc1Nc1ccccc1,inactive
18,Cc1nn(-c2ccccc2)c2sc(C(=O)OCn3nnc4ccccc4c3=O)cc12,inconclusive: 1.1 nM
19,Cc1noc(C)c1C(=O)N1CCC2(CCCN(c3ncccn3)C2)CC1,inconclusive: 1.1 nM
20,CC1CCN(C(=O)Cc2nn(C)c(=O)c3ccccc23)CC1,inconclusive: 1.4 nM
21,CC(C)c1ccc2c(c1)CC[C@H]1[C@@](C)(CN)CCC[C@@]21C,inconclusive: 1.8 nM
22,COC(=O)CNC(=O)c1c(-c2ccccc2Cl)noc1C,inconclusive: 1.1 nM

# Ordered by molecular weight (largest number first): some entries from above.
row,SMILES,max dye-equivalent concentration
9,COc1ccccc1N(CC(=O)NC1CCCC1)C(=O)CCC(=O)Nc1cc(C)on1,inconclusive: 1.9 nM
19,Cc1noc(C)c1C(=O)N1CCC2(CCCN(c3ncccn3)C2)CC1,inconclusive: 1.1 nM
4,O=C1CN(C(=O)c2ccccc2)c2ccccc2N1,inconclusive: 1.4 nM
